According to PubChem BioAssay AID504444 (National Center for Advancing Translational Sciences (NCATS), 2011):
Screen size: about 360,000 compounds; about 7,500 (2.1%) were called active. The inconclusive results got no clear call from the source; some entries with a clear call stand among them for comparison. Calls come from the whole dose curve; as a rule, active = well fitted inhibition curve with a large enough effect; inconclusive = small, poorly fitted or top-dose-only effect, or effect the other way; inactive = flat fitted curve, though single readings scatter. A potency beside an inconclusive call is a rough fit, not a confirmed value.

assay: Nrf2 qHTS screen for inhibitors; conditions: A549 ARE-Fluc reporter, luciferase luminescence, 18-24 h; series mostly up to 46 µM; note: nearly all actives have a fitted effect of over 60% in size
How it was run: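 Nrf2 function is reported as luminescence of an ARE-controlled luciferase in A549 cells. Compounds were tested at several concentrations, and a CellTiter-Fluor read on the same wells flagged cytotoxicity.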
Potency is the fitted concentration of half-maximal effect.

| Compound | Potency |
| --- | --- |
| Cc1cc(C(=O)Nc2cccc3cccnc23)ccc1[N+](=O)[O-] | inconclusive: 20.6 µM [activator, single point] |
| O=C(Cn1c(C(F)(F)F)nc2ccccc21)c1ccccc1 | active: 20.6 µM |
| Cc1nc2sccn2c1-c1csc(NCc2ccccc2)n1 | active: 8.2 µM |
| C/C(=N\OCC(=O)N/N=C/c1ccccc1)c1cccs1 | inconclusive: 29.1 µM [activator, single point] |
| Cc1cc(C)c(S(=O)(=O)N2CCN(C(=O)c3ccc(-n4cncn4)c([N+](=O)[O-])c3)CC2)c(C)c1 | inconclusive: 2.91 µM [falling, full curve] |
| COc1ccc(CNc2oc(-c3cccc4ccccc34)nc2C#N)cc1 | inactive |
| COc1cccc(CCc2nnc(CCC(=O)NCCc3cccc(C)n3)o2)c1 | inconclusive: 0.0206 µM [falling, full curve, poor fit] |
| CCn1c(COc2ccc(Cl)cc2)nnc1SCc1ccc(C#N)cc1 | inconclusive: 23.1 µM [falling, partial curve, poor fit] |
| C#CCNC(=O)C1=C[C@@H](C)[C@H](CCCO)[C@@H](OCC)O1 | inactive |
| O=C(OCc1nc2ccccc2s1)c1cnccn1 | inconclusive: 18.4 µM [activator, partial curve] |
| CCCCCc1ccc(-c2ccc(C(=O)Oc3ccc(C(=O)OC)cc3)cc2)nc1 | inconclusive: 2.59 µM [activator, full curve] |
| CC(C)(C)C1CCc2c(sc(NC(=O)CSc3ncn[nH]3)c2C#N)C1 (configuration not stated) | inconclusive: 18.4 µM [falling, single point] |
| CC(Sc1nc2ccccc2c(=O)n1C)C(=O)N(C)C1CCCCC1 (configuration not stated) | active: 18.4 µM |
| CCCOc1cccc(C(=O)NC(=S)Nc2ccccc2)c1 | inconclusive: 7.31 µM [activator, partial curve, poor fit] |
| CCC(=O)Nc1ccc(N/C(N)=N/c2nc(C)cc(C)n2)cc1 | inconclusive: 20.6 µM [falling, single point] |
| CC(=N\NC(=O)c1cc(Br)ccc1O)/C(=N/O)C(=O)Nc1ccccc1 | inconclusive: 23.1 µM [falling, single point] |
| Cc1ccc(CS(=O)Cc2ccc(C(=O)N3CCN(c4ccc(F)cc4)CC3)o2)cc1 (configuration not stated) | inconclusive: 32.6 µM [falling, single point] |
| COc1ccc(-c2cc(C(F)(F)F)nc(SCCC(=O)Nc3ccc(O)cc3)n2)cc1 | inconclusive: 18.4 µM [falling, single point] |
| CCn1c2ccccc2c2nnc(N3CCN(c4ccc(OC)cc4)CC3)nc21 | inconclusive: 14.6 µM [falling, partial curve] |
| CN(C)S(=O)(=O)c1cc(NC(=O)CN2CCc3ccccc32)ccc1Cl | inconclusive: 29.1 µM [activator, partial curve, poor fit] |
| Cn1c(CO)nc2c3ccccc3ccc21 | inconclusive: 3.66 µM [activator, full curve] |
| O=C(O)c1ccc2c(c1)C(=O)N([C@H](Cc1ccc(-c3ccccc3)cc1)C(=O)O)C2=O | inactive |
| CCN(CC)C(=O)CSc1cn(CC(=O)N2CCCCCC2)c2ccccc12 | inactive |

| Compound | Potency |
| --- | --- |
| Cc1ccc(NC(=O)C2CCN(c3nc4ccccc4nc3C(F)(F)F)CC2)cc1C | inconclusive: 6.51 µM [falling, single point] |
| COc1ccc(-c2cc(C3CCN(c4ncccc4[N+](=O)[O-])CC3)[nH]n2)cc1 | inconclusive: 9.2 µM [falling, partial curve, poor fit] |
| COc1ccc(CCNC(=O)C2CCN(Cc3nc(-c4ccccc4C)oc3C)CC2)cc1OC | inconclusive: 20.6 µM [falling, partial curve, poor fit] |
| CN(C)C(=O)COC(=O)c1cccc(CN2C(=O)c3ccccc3C2=O)c1 | inactive |
| COc1ccc(CCn2c(=N)c(S(=O)(=O)c3ccc(C)cc3)cc3c(=O)n4ccccc4nc32)cc1 | inconclusive: 13 µM [falling, partial curve, poor fit] |
| COc1ccc(CNS(=O)(=O)c2ccc(-c3ccc(=O)[nH]n3)s2)cc1OC | inconclusive: 0.82 µM [falling, partial curve, poor fit] |
| Cc1cc(NC(=O)/C(C#N)=C\c2ccc(-c3ccc(SC(F)F)cc3)o2)n(-c2ccccc2)n1 | inconclusive: 3.66 µM [activator, full curve] |
| CC(=O)/C(N)=N/Nc1cccc(Cl)c1 | inactive |
| C=CCn1c(SCC(=O)NC2CCCC2)nc2scc(-c3ccco3)c2c1=O | inactive |
| CN1CCN(S(=O)(=O)c2ccc(Br)c3nsnc23)CC1 | inactive |
| Cc1onc(-c2ccccc2)c1C(=O)NC(=S)NNC(=O)c1cc(-c2ccc(F)cc2)n[nH]1 | inconclusive: 23.1 µM [falling, single point] |
| CN1CCN(S(=O)(=O)c2ccc(N3CCN(S(=O)(=O)/C=C/c4ccccc4)CC3)nc2)CC1 | inconclusive: 29.1 µM [falling, single point] |
| COc1ccc(-c2c/c(=N\c3nc(-c4ccccc4)c(C)s3)c3ccccc3o2)cc1O | inconclusive: 16.4 µM [falling, single point] |
| O=C(Nc1ccccc1N1CCCCC1)c1ccc2nccnc2c1 | inconclusive: 14.6 µM [falling, partial curve, poor fit] |
| COc1cc(C(=O)NC(CCSC)C(=O)OCC(=O)NC(=O)C2CCCCC2)cc(OC)c1OC (configuration not stated) | inconclusive: 8.2 µM [activator, partial curve] |
| COc1ccc2c(c1)CC=C1C2CCC2(C)C(=O)C(=NO)CC12 (configuration not stated) | inconclusive: 29.1 µM [activator, single point] |
| O=C(c1ccco1)N1CCN(CCOCCOc2cccc3ccccc23)CC1 | inactive |
| O=C1/C(=C\c2ccc(Br)o2)Cc2ccccc21 | inconclusive: 14.6 µM [activator, partial curve, poor fit] |
| N#CCC(CNc1ncc(C(F)(F)F)cc1Cl)OC(=O)c1ccc(Cl)cc1 (configuration not stated) | inconclusive: 25.9 µM [falling, single point] |
| CCOC(=O)C1CCCN(Cc2cccc(Oc3ccccc3)c2)C1 (configuration not stated) | inconclusive: 20.6 µM [activator, single point] |
| COc1cc(NC(=O)Cn2nnc(-c3ccncc3)n2)cc(OC)c1 | inconclusive: 29.1 µM [falling, single point] |
| COc1ccc(-c2cc(C3CCN(c4ccc(C(C)=O)cc4[N+](=O)[O-])CC3)[nH]n2)cc1 | active: 16.4 µM |
| COc1ccc(CNc2n[nH]c(-c3ccco3)n2)cc1OC | inactive |

| Compound | Potency |
| --- | --- |
| CC(=O)Nc1ccc(SC[C@H](CC(C)C)N2CCN(CCc3ccccc3)CCC2=O)cc1 | inconclusive: 23.1 µM [falling, partial curve, poor fit] |
| O=C(c1cc(-c2ccccc2Cl)nc2ccccc12)N1CCN(c2ccccc2O)CC1 | inconclusive: 14.6 µM [falling, partial curve] |
| CNC(=S)N/N=C(\C)c1ccc(C)c(C)c1 | inconclusive: 11.6 µM [activator, partial curve, poor fit] |
| COc1cc(OC)cc(C(=O)NCC(=O)N2CCN(c3ccc(O)cc3)CC2)c1 | inconclusive: 11.6 µM [falling, partial curve] |
| CCOC(=O)Nc1ccc2nc3n(c(=O)c2c1)CCCCC3 | inconclusive: 16.4 µM [activator, partial curve, poor fit] |
| CC(OCC(O)CN(C)Cc1nc2ccccc2c(=O)[nH]1)c1ccc(Cl)cc1 (configuration not stated) | inconclusive: 29.1 µM [falling, single point] |
| CN1/C(=C\C(=O)COC(=O)CNC(=O)c2ccc3ccccc3c2)C(C)(C)c2ccccc21 | inconclusive: 29.1 µM [falling, single point] |
| O=C(COC(=O)c1ccc(O)cc1)Nc1ccc(N2CCCCC2)cc1 | inactive |
| Cc1c(NC(=O)C(C)OC(=O)COc2ccc(C#N)cc2)c(=O)n(-c2ccccc2)n1C (configuration not stated) | inconclusive: 6.51 µM [activator, partial curve, poor fit] |
| COc1ccccc1C(=O)Nc1cc(C)ccc1NC(=O)c1ccco1 | inconclusive: 1.03 µM [falling, full curve] |
| c1ccc(N/N=C2\CCCc3ccccc32)nc1 | inactive |
| CCOc1ccc(/C=C/C(=O)c2cc(Br)ccc(=O)c2O)cc1 | active: 16.4 µM |
| NC(=O)COC(=O)c1ccccc1OCc1ccccc1Cl | inactive |
| COc1ccc(S(=O)(=O)N2CCCCCC2)cc1C(=O)NCc1ccccc1Cl | inconclusive: 18.4 µM [falling, partial curve, poor fit] |
| Cc1ccc(NC(=O)c2cc3c(s2)CCC3)cc1S(=O)(=O)N1CCOCC1 | active: 20.6 µM |
| Cc1ccc(NS(=O)(=O)c2ccc(NC(=O)C3CC3)cc2)cc1C | inconclusive: 14.6 µM [falling, partial curve] |
| Cc1ccc(C)c(NC(=O)CSc2ncc3c(n2)-c2ccccc2N(Cc2ccccc2C)S3(=O)=O)c1 | inconclusive: 14.6 µM [activator, partial curve, poor fit] |
| COc1ccc(/C=C/c2nc(C#N)c(N3CCCCCC3)o2)cc1OC | inconclusive: 29.1 µM [falling, single point] |
| C(=C\c1cccc2ccccc12)/c1nnc(-c2cccs2)o1 | inactive |
| Cc1nnc(N2CCC(C(=O)N3CCCCC3)CC2)c2nn(-c3ccccc3)c(C)c12 | inactive |
| CC(C)(C)c1ccc(NC(=O)COC(=O)c2ccc(NS(=O)(=O)c3ccc(F)c(F)c3)cc2)cc1 | inactive |

Fetched by compound from above:

| Compound | Potency |
| --- | --- |
| CC(C)(C)c1ccc(NC(=O)COC(=O)c2ccc(NS(=O)(=O)c3ccc(F)c(F)c3)cc2)cc1 | inactive |
| COc1cc(OC)cc(C(=O)NCC(=O)N2CCN(c3ccc(O)cc3)CC2)c1 | inconclusive: 11.6 µM [falling, partial curve] |
| c1ccc(N/N=C2\CCCc3ccccc32)nc1 | inactive |
| CC(=O)Nc1ccc(SC[C@H](CC(C)C)N2CCN(CCc3ccccc3)CCC2=O)cc1 | inconclusive: 23.1 µM [falling, partial curve, poor fit] |
